{"source": "PubChem BioAssay AID330", "about": "(DTP/NCI, 2004)", "tested_on": "P388 leukemia ip, CD2F1 mice, survival T/C", "assay": "NCI In Vivo Anticancer Drug Screen. Data for tumor model P388 Leukemia (intraperitoneal) in CD2F1 (CDF1) mice", "details": "T/C endpoint: median survival time, higher T/C = longer survival", "key": {"[1]": {"details": "dose: 10.0 mg/kg/injection, schedule: Q## X009 (ip), vehicle: lactic acid"}}, "note": "The list shows only some results of the screen, not a fair sample: it gathers tests that were run many times, whatever their T/C, doses with no T/C, and many T/C values between a quarter and a half above the control. Further doses and runs are listed elsewhere. T/C gives the treated animals as a percentage of the vehicle group. Some entries give survivors of the animals treated and no T/C: the source files T/C as zero there, which appears to mark a toxic dose or a test without result, not a measured value. Some survivor counts are full or nearly so, which does not show that the dose was tolerated: the source hardly ever lists a survival T/C far under the control, and the zero likely stands for such cases as well. Counts of survivors are from the toxicity check (mostly the fifth day) where no day follows; animals may have died later. Schedule codes are those of the source, taken here to give the interval after Q, in days (D) or hours (H), and the number of doses after X. Some schedules carry Z or #; the key to these is not given. Some entries were tested several times; the values are given in rising order. Where survival is the endpoint, this PubChem deposit counts one and a half times the control or more as active, and values a quarter to a half above the control carry no call in these data; other NCI protocols may use other cut-offs. Some T/C values carry the count of animals alive at the toxicity check (mostly the fifth day); without a count, all were alive then.", "data": [{"smiles": "c1ccc2c(NCCCCCCNc3c4ccccc4nc4ccccc34)c3ccccc3nc2c1", "values": [{"measurement": "T/C", "setting": "dose: 0.62 mg/kg/injection, schedule: Q## X009 (ip), vehicle: lactic acid", "value": "127 % of control"}, {"measurement": "T/C", "setting": "dose: 0.63 mg/kg/injection, schedule: Q01DX009 (ip), vehicle: other", "value": "128 % of control"}, {"measurement": "T/C", "setting": "dose: 1.25 mg/kg/injection, schedule: Q01DX009 (ip), vehicle: other", "value": "133 % of control"}, {"measurement": "T/C", "setting": "dose: 1.25 mg/kg/injection, schedule: Q01DX009 (ip), vehicle: water", "value": "126 % of control"}, {"measurement": "T/C", "setting": "dose: 1.25 mg/kg/injection, schedule: Q## X009 (ip), vehicle: lactic acid", "value": "137 and 143 % of control"}, {"measurement": "T/C", "setting": "dose: 1.56 mg/kg/injection, schedule: Q01DX009 (ip), vehicle: Klucel (hydroxypropylcellulose) (HPC)", "value": "140 % of control"}, {"measurement": "T/C", "setting": "dose: 1.56 mg/kg/injection, schedule: Q01DX009 (ip), vehicle: lactic acid", "value": "137 % of control"}, {"measurement": "T/C", "setting": "dose: 1.94 mg/kg/injection, schedule: Q01DX009 (ip), vehicle: other", "value": "136 % of control"}, {"measurement": "T/C", "setting": "dose: 2.5 mg/kg/injection, schedule: Q01DX009 (ip), vehicle: Klucel (hydroxypropylcellulose) (HPC)", "value": "134 and 135 % of control"}, {"measurement": "T/C", "setting": "dose: 2.5 mg/kg/injection, schedule: Q01DX009 (ip), vehicle: other", "value": "138 % of control"}, {"measurement": "T/C", "setting": "dose: 2.5 mg/kg/injection, schedule: Q01DX009 (ip), vehicle: water", "value": "138 and 141 % of control"}, {"measurement": "T/C", "setting": "dose: 2.5 mg/kg/injection, schedule: Q## X009 (ip), vehicle: Klucel (hydroxypropylcellulose) (HPC)", "value": "134 % of control"}, {"measurement": "T/C", "setting": "dose: 2.5 mg/kg/injection, schedule: Q## X009 (ip), vehicle: lactic acid", "value": "147 % of control"}, {"measurement": "T/C", "setting": "dose: 2.59 mg/kg/injection, schedule: Q01DX009 (ip), vehicle: Klucel (hydroxypropylcellulose) (HPC)", "value": "138 % of control"}, {"measurement": "T/C", "setting": "dose: 2.59 mg/kg/injection, schedule: Q04DX003 (ip), vehicle: other", "value": "139 % of control"}, {"measurement": "T/C", "setting": "dose: 3.24 mg/kg/injection, schedule: Q01DX009 (ip), vehicle: other", "value": "144 % of control"}, {"measurement": "T/C", "setting": "dose: 3.75 mg/kg/injection, schedule: Q01DX009 (ip), vehicle: other", "value": "134 % of control"}, {"measurement": "T/C", "setting": "dose: 4.32 mg/kg/injection, schedule: Q01DX009 (ip), vehicle: Klucel (hydroxypropylcellulose) (HPC)", "value": "147 % of control"}, {"measurement": "T/C", "setting": "dose: 4.32 mg/kg/injection, schedule: Q04DX003 (ip), vehicle: other", "value": "137 % of control"}, {"measurement": "T/C", "setting": "dose: 5.0 mg/kg/injection, schedule: Q01DX009 (ip), vehicle: Klucel (hydroxypropylcellulose) (HPC)", "value": "135 [7 of 8 alive] and 139 % of control"}, {"measurement": "T/C", "setting": "dose: 5.0 mg/kg/injection, schedule: Q01DX009 (ip), vehicle: other", "value": "149 % of control"}, {"measurement": "T/C", "setting": "dose: 5.0 mg/kg/injection, schedule: Q01DX009 (ip), vehicle: water", "value": "132 and 135 % of control"}, {"measurement": "T/C", "setting": "dose: 5.0 mg/kg/injection, schedule: Q## X009 (ip), vehicle: Klucel (hydroxypropylcellulose) (HPC)", "value": "139 % of control"}, {"measurement": "T/C", "setting": "dose: 5.0 mg/kg/injection, schedule: Q## X009 (ip), vehicle: lactic acid", "value": "135 and 144 % of control"}, {"measurement": "survivor count", "setting": "dose: 6.0 mg/kg/injection, schedule: Q01DX009 (ip), vehicle: lactic acid", "value": "5 of 8"}, {"measurement": "T/C", "setting": "dose: 7.5 mg/kg/injection, schedule: Q01DX009 (ip), vehicle: other", "value": "142 % of control"}, {"measurement": "T/C", "setting": "dose: 10.0 mg/kg/injection, schedule: Q01DX009 (ip), vehicle: Klucel (hydroxypropylcellulose) (HPC)", "value": "126 [7 of 8 alive] and 145 % of control"}, {"measurement": "survivor count", "setting": "dose: 10.0 mg/kg/injection, schedule: Q01DX009 (ip), vehicle: lactic acid", "value": "2 of 8"}, {"measurement": "survivor count", "setting": "dose: 10.0 mg/kg/injection, schedule: Q01DX009 (ip), vehicle: water", "value": "2 of 6"}, {"measurement": "T/C", "setting": "dose: 10.0 mg/kg/injection, schedule: Q## X009 (ip), vehicle: Klucel (hydroxypropylcellulose) (HPC)", "value": "143 % of control"}, {"measurement": "T/C", "setting": "[1]", "value": "129 % of control"}, {"measurement": "survivor count", "setting": "[1]", "value": "3 of 6"}, {"measurement": "survivor count", "setting": "dose: 12.0 mg/kg/injection, schedule: Q01DX009 (ip), vehicle: lactic acid", "value": "5 of 8"}, {"measurement": "survivor count", "setting": "dose: 15.0 mg/kg/injection, schedule: Q01DX009 (ip), vehicle: other", "value": "4 of 6"}, {"measurement": "survivor count", "setting": "dose: 16.7 mg/kg/injection, schedule: Q01DX009 (ip), vehicle: Klucel (hydroxypropylcellulose) (HPC)", "value": "5 of 8"}, {"measurement": "survivor count", "setting": "dose: 16.7 mg/kg/injection, schedule: Q01DX009 (ip), vehicle: lactic acid", "value": "1 of 8"}, {"measurement": "survivor count", "setting": "dose: 20.0 mg/kg/injection, schedule: Q01DX009 (ip), vehicle: Klucel (hydroxypropylcellulose) (HPC)", "value": "0 of 6, 5 of 8, 8 of 8"}, {"measurement": "survivor count", "setting": "dose: 20.0 mg/kg/injection, schedule: Q01DX009 (ip), vehicle: lactic acid", "value": "0 of 8"}, {"measurement": "survivor count", "setting": "dose: 20.0 mg/kg/injection, schedule: Q01DX009 (ip), vehicle: other", "value": "4 of 6"}, {"measurement": "T/C", "setting": "dose: 20.0 mg/kg/injection, schedule: Q01DX009 (ip), vehicle: water", "value": "132 % of control [5 of 6 alive]"}, {"measurement": "survivor count", "setting": "dose: 20.0 mg/kg/injection, schedule: Q04DX003 (ip), vehicle: other", "value": "4 of 8"}, {"measurement": "survivor count", "setting": "dose: 20.0 mg/kg/injection, schedule: Q## X009 (ip), vehicle: Klucel (hydroxypropylcellulose) (HPC)", "value": "0 of 6"}, {"measurement": "survivor count", "setting": "dose: 20.0 mg/kg/injection, schedule: Q## X009 (ip), vehicle: lactic acid", "value": "0 of 4"}, {"measurement": "survivor count", "setting": "dose: 21.6 mg/kg/injection, schedule: Q01DX003 (ip), vehicle: water", "value": "1 of 8"}, {"measurement": "survivor count", "setting": "dose: 33.3 mg/kg/injection, schedule: Q01DX009 (ip), vehicle: Klucel (hydroxypropylcellulose) (HPC)", "value": "0 of 8"}, {"measurement": "survivor count", "setting": "dose: 33.3 mg/kg/injection, schedule: Q01DX009 (ip), vehicle: lactic acid", "value": "0 of 8"}, {"measurement": "survivor count", "setting": "dose: 36.0 mg/kg/injection, schedule: Q01DX003 (ip), vehicle: water", "value": "0 of 8"}, {"measurement": "survivor count", "setting": "dose: 40.0 mg/kg/injection, schedule: Q01DX009 (ip), vehicle: Klucel (hydroxypropylcellulose) (HPC)", "value": "0 of 6"}, {"measurement": "survivor count", "setting": "dose: 40.0 mg/kg/injection, schedule: Q## X009 (ip), vehicle: Klucel (hydroxypropylcellulose) (HPC)", "value": "0 of 6"}, {"measurement": "survivor count", "setting": "dose: 60.0 mg/kg/injection, schedule: Q01DX003 (ip), vehicle: water", "value": "0 of 8"}]}, {"smiles": "CCn1c2ccccc2c2cc(N=Nc3cc4cc5ccccc5cc4cc3N)ccc21", "values": [{"measurement": "survivor count", "setting": "dose: 400.0 mg/kg/injection, schedule: Q04DX003 (ip), vehicle: Klucel (hydroxypropylcellulose) (HPC)", "value": "0 of 6"}]}, {"smiles": "O=C(O)c1cnc2c(C(F)(F)F)cccc2c1Nc1ccc2c(c1)OCO2", "values": [{"measurement": "survivor count", "setting": "dose: 60.0 mg/kg/injection, schedule: Q01DX005 (ip), vehicle: Klucel (hydroxypropylcellulose) (HPC)", "value": "6 of 6"}]}, {"smiles": "NC(CO)C(=O)O.[Cl-].[Cl-].[Cl-].[Cl-].[Pt+2]", "note": "(stereo unspecified)", "values": [{"measurement": "T/C", "setting": "dose: 25.0 mg/kg/injection, schedule: Q01DX009 (ip), vehicle: saline", "value": "131 % of control"}]}, {"smiles": "O=NNc1ccc(SSc2ccc(NN=O)cc2)cc1", "values": [{"measurement": "T/C", "setting": "dose: 6.25 mg/kg/injection, schedule: Q01DX009 (ip), vehicle: water", "value": "128 % of control"}, {"measurement": "survivor count", "setting": "dose: 12.5 mg/kg/injection, schedule: Q01DX009 (ip), vehicle: water", "value": "2 of 6"}, {"measurement": "survivor count", "setting": "dose: 25.0 mg/kg/injection, schedule: Q01DX009 (ip), vehicle: water", "value": "0 of 6"}, {"measurement": "survivor count", "setting": "dose: 50.0 mg/kg/injection, schedule: Q01DX009 (ip), vehicle: water", "value": "0 of 6"}]}, {"smiles": "S=C=NCCc1ccccc1", "values": [{"measurement": "T/C", "setting": "dose: 25.0 mg/kg/injection, schedule: Q01DX009 (ip), vehicle: saline with Tween-80", "value": "126 % of control"}, {"measurement": "T/C", "setting": "dose: 33.0 mg/kg/injection, schedule: Q01DX009 (ip), vehicle: saline with Tween-80", "value": "128 % of control"}, {"measurement": "T/C", "setting": "dose: 50.0 mg/kg/injection, schedule: Q01DX009 (ip), vehicle: saline with Tween-80", "value": "133 % of control"}, {"measurement": "survivor count", "setting": "dose: 75.0 mg/kg/injection, schedule: Q01DX009 (ip), vehicle: saline with Tween-80", "value": "6 of 6"}, {"measurement": "survivor count", "setting": "dose: 100.0 mg/kg/injection, schedule: Q01DX009 (ip), vehicle: saline with Tween-80", "value": "2 of 6"}]}, {"smiles": "COC(=O)[C@@H]1[C@H](O)[C@H](C)[C@H](O)[C@H](C)/C=C\\C=C(C)C(=O)Nc2c(C)c(OC(C)=O)c3c(c2O)C(=O)C(C)=C2OCOC(=C23)C(C)=C[C@@](C)(O)[C@H](O)[C@@H](C)[C@H]1OC(C)=O", "values": [{"measurement": "survivor count", "setting": "dose: 50.0 mg/kg/injection, schedule: Q01DX009 (ip), vehicle: saline", "value": "6 of 6"}, {"measurement": "T/C", "setting": "dose: 400.0 mg/kg/injection, schedule: Q01DX009 (ip), vehicle: saline", "value": "125 % of control [4 of 6 alive]"}]}, {"smiles": "C/C(=N\\O)C1CCN(Cc2ccccc2)CC1", "values": [{"measurement": "survivor count", "setting": "dose: 100.0 mg/kg/injection, schedule: Q01DX005 (ip), vehicle: Klucel (hydroxypropylcellulose) (HPC)", "value": "4 of 5"}, {"measurement": "survivor count", "setting": "dose: 200.0 mg/kg/injection, schedule: Q01DX005 (ip), vehicle: Klucel (hydroxypropylcellulose) (HPC)", "value": "0 of 5"}]}]}
